According to patent publication US20250019435A1:
No constants are given. Whether binding was seen depends on the method and setting. Some entries that bind do so weakly or less than the wild type. Where a sequence is shown, tags or fusion partners need not be part of it.

Sequences of proteins named here, by UniProt entry; tags and fusion partners are left off. A change or cut given only in a name is not applied to a line headed by its entry.
UniProt Q8N109: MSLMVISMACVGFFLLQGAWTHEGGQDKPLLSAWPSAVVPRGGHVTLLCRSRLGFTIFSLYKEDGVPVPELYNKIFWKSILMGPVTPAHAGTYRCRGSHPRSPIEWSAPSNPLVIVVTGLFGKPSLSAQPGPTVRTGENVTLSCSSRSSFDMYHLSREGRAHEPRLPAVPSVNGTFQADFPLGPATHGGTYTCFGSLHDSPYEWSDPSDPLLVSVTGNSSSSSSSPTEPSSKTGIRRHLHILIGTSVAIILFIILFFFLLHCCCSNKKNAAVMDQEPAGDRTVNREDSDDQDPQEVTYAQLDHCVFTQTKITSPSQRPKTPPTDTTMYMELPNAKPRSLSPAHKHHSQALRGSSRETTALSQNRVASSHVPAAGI

Key:
[1] = molecular target: KIR2DL5 wild type (KIR2DL5A*001) expressed on cells (human) (UniProt Q8N109); test: flow cytometry, PVR-Ig on KIR2DL5/3T3 cells
[2] = molecular target: KIR2DL5 wild type (KIR2DL5A*001) expressed on cells (human) (UniProt Q8N109); test: flow cytometry, PVR-Ig titrated on KIR2DL5/3T3
[3] = molecular target: KIR2DL5 D0 variant G97S expressed on 3T3 cells (human) (UniProt Q8N109); test: flow cytometry, PVR-Ig on transduced 3T3 cells
[4] = molecular target: KIR2DL5 D0 variant P112S expressed on 3T3 cells (human) (UniProt Q8N109); test: flow cytometry, PVR-Ig on transduced 3T3 cells
[5] = molecular target: KIR2DL5 D0 variant R52H expressed on 3T3 cells (human) (UniProt Q8N109); test: flow cytometry, PVR-Ig on transduced 3T3 cells
[6] = molecular target: KIR2DL5 D0 variant T46S expressed on 3T3 cells (human) (UniProt Q8N109); test: flow cytometry, PVR-Ig on transduced 3T3 cells
[7] = molecular target: KIR2DL5 wild type (KIR2DL5A*001) expressed on cells (human) (UniProt Q8N109); test: flow cytometry, PVR-Ig on transduced 3T3 cells
[8] = molecular target: KIR2DL5 wild type (KIR2DL5A*001) expressed on cells (human) (UniProt Q8N109); test: flow cytometry, PVR-Ig on 3T3 cells expressing the allele
[9] = molecular target: KIR2DL5 D0 variant G97S expressed on 3T3 cells (human) (UniProt Q8N109); test: flow cytometry, PVR-Ig on 3T3 cells expressing the variant
[10] = molecular target: KIR2DL5 D0 variant P112S expressed on 3T3 cells (human) (UniProt Q8N109); test: as above
[11] = molecular target: KIR2DL5 D0 variant R52H expressed on 3T3 cells (human) (UniProt Q8N109); test: as above
[12] = molecular target: KIR2DL5 D0 variant T46S expressed on 3T3 cells (human) (UniProt Q8N109); test: as above
[13] = molecular target: KIR2DL5 wild type (KIR2DL5A*001) expressed on cells (human) (UniProt Q8N109); test: flow cytometry, PVR-Ig on 3T3 cells expressing KIR2DL5 alleles
[14] = molecular target: KIR2DL5 wild type (KIR2DL5A*001) expressed on cells (human) (UniProt Q8N109); test: flow cytometry, PVR-Ig on transduced 3T3 cells (discussion of the examples)
[15] = molecular target: KIR2DL5 wild type (KIR2DL5A*001) expressed on cells (human) (UniProt Q8N109); test: flow cytometry, PVR-Ig preincubated with His-tagged protein, on KIR2DL5/3T3 cells
[16] = molecular target: KIR2DL5 wild type (KIR2DL5A*001) expressed on cells (human) (UniProt Q8N109); test: flow cytometry, fusion protein on KIR2DL5/3T3, anti-human IgG Fc detection
[17] = molecular target: KIR2DL5 wild type (KIR2DL5A*001) expressed on cells (human) (UniProt Q8N109); test: flow cytometry competition with His-tagged TIGIT, CD96 and DNAM-1 (discussion of the examples)
[18] = molecular target: KIR2DL5 wild type (KIR2DL5A*001) expressed on cells (human) (UniProt Q8N109); test: flow cytometry, PVR-Ig preincubated with His-tagged DNAM-1, TIGIT or CD96, on KIR2DL5/3T3 cells
[19] = molecular target: KIR2DL5 wild type (KIR2DL5A*001) expressed on cells (human) (UniProt Q8N109); test: flow cytometry, PVR-Ig 20 µg/mL preincubated with the His-tagged proteins, then KIR2DL5/3T3
[20] = molecular target: T1, PVR expressed on transduced cells (PVR-YFP) (UniProt P15151); test: flow cytometry, PVR/3T3 cells preincubated with CD96-His, then KIR2DL5-Ig
T1 sequence (looked up): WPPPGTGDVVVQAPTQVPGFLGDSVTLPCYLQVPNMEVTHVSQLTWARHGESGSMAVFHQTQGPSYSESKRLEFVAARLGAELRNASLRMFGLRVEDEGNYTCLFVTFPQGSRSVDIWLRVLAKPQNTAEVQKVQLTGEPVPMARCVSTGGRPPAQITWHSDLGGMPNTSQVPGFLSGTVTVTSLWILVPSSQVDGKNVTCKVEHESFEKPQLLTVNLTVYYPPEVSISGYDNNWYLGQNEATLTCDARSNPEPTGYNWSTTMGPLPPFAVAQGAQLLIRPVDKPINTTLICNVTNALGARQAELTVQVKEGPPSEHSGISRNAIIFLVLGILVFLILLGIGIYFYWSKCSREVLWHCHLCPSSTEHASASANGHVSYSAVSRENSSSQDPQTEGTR

Measured: binding

B1: PVR-Ig fusion protein (Fc fusion, UniProt P15151 27-343, looked up, not shown: a dimerising Fc or GST)
chain: GDVVVQAPTQVPGFLGDSVTLPCYLQVPNMEVTHVSQLTWARHGESGSMAVFHQTQGPSYSESKRLEFVAARLGAELRNASLRMFGLRVEDEGNYTCLFVTFPQGSRSVDIWLRVLAKPQNTAEVQKVQLTGEPVPMARCVSTGGRPPAQITWHSDLGGMPNTSQVPGFLSGTVTVTSLWILVPSSQVDGKNVTCKVEHESFEKPQLLTVNLTVYYPPEVSISGYDNNWYLGQNEATLTCDARSNPEPTGYNWSTTMGPLPPFAVAQGAQLLIRPVDKPINTTLICNVTNALGARQAELTVQVKEGPPSEHSGISRN
not listed: [20]
binds: all other assays above

B2: recombinant human CD96-His tag protein (receptor, UniProt P40200-2 22-503, looked up, not shown: small tags and cut ends)
chain: VWEKTVNTEENVYATLGSDVNLTCQTQTVGFFVQMQWSKVTNKIDLIAVYHPQYGFYCAYGRPCESLVTFTETPENGSKWTLHLRNMSCSVSGRYECMLVLYPEGIQTKIYNLLIQTHVTADEWNSNHTIEIEINQTLEIPCFQNSSSKISSEFTYAWSVEDNGTQETLISQNHLISNSTLLKDRVKLGTDYRLHLSPVQIFDDGRKFSCHIRVGPNKILRSSTTVKVFAKPEIPVIVENNSTDVLVERRFTCLLKNVFPKANITWFIDGSFLHDEKEGIYITNEERKGKDGFLELKSVLTRVHSNKPAQSDNLTIWCMALSPVPGNKVWNISSEKITFLLGSEISSTDPPLSVTESTLDTQPSPASSVSPARYPATSSVTLVDVSALRPNTTPQPSNSSMTTRGFNYPWTSSGTDTKKSVSRIPSETYSSSPSGAGSTLHDNVFTSTARAFSEVPTTANGSTKTNHVHITGIVVNKPKDGM
binds: [20]
